From PubChem BioAssay AID540276 (National Center for Advancing Translational Sciences (NCATS), 2011)
“And” between values parts separate entries of the source, which are not always exact repeats. Equal values may be shown once. Among all 300,000 compounds or so, about 5,400 (1.8%) were called active. The shares of active, inactive and inconclusive entries below differ from those in the screen. Calls come from the whole dose curve; tested in HEK293 cells. A potency beside an inconclusive call is a rough fit, not a confirmed value.

Assay: qHTS for inhibitors of binding or entry into cells for Marburg Virus
Settings: Marburg virus pseudotyped entry inhibition, cell reporter; activity change, negative = inhibition: at 37.8 µM (top of the series) unless noted
% is set by controls: 0 for no effect and ±100 for the full control effect; potency is the fitted concentration of half-maximal effect.

Structure (SMILES) | Potency | activity change, negative = inhibition
CC(C)CN1C(=O)C(=O)N(CC(=O)N2CCN(c3ccccc3)CC2)C1=O | inconclusive: 35.5 µM [activator, single point] | –
COc1cccc(C2CC(=O)Nc3c2ccc(C)c3C)c1OC (stereo unspecified) | – | inactive: 1.79% [at 46.1 µM]
COc1cc(C(=O)NCC(=O)N/N=C\C(C)=C/c2ccccc2)cc(OC)c1OC | inconclusive: 23.1 µM [inhibitor, single point] | –
CC1(C)CC(=O)C=C(NNC(=O)c2cccnc2)C1 | inconclusive: 1.78 µM [inhibitor, partial curve, poor fit] | –
CCOc1ccc(S(=O)(=O)NCCC(=O)NCC(C)(C)N2CCOCC2)cc1 | inconclusive: 31.6 µM [activator, single point] | –
Cc1ccc(-c2csc3nc(C)n(-n4c(C)ccc4C)c(=O)c23)o1 | inconclusive: 17.8 µM [inhibitor, partial curve, poor fit] | –
Cc1ccc(NC(=O)CN2C(=O)NC(C)(c3ccc(Cl)cc3)C2=O)cc1 (stereo unspecified) | – | inactive: -2.61% [at 46.1 µM]
CCc1ccc(NC(=O)CC2C(=O)NCCN2C(=O)c2ccc(F)cc2)cc1 (stereo unspecified) | inconclusive: 5.62 µM [activator, single point] and inconclusive: 11.2 µM [activator, partial curve, poor fit] | –
Fc1ccc(COc2cccc(CNCc3ccncc3)c2)cc1 | active: 6.31 µM | –
COc1ccc(C(=O)Nc2ccccc2C(=O)NCc2ccco2)cc1 | inconclusive: 35.5 µM [inhibitor, single point] | –
CCOC(=O)c1[nH]c(C)c(C(=O)OCC(=O)Nc2sc3c(c2C#N)CCCCC3)c1C | inconclusive: 3.16 µM [inhibitor, partial curve, poor fit] | –
O=c1c2ccc(Cl)cc2nc(-c2cccc(C(F)(F)F)c2)n1O | inconclusive: 7.94 µM [inhibitor, partial curve, poor fit] | –
COc1cccc(NC(=S)NNC(=O)Cn2nc([N+](=O)[O-])cc2C)c1 | inconclusive: 35.5 µM [inhibitor, single point] | –
COc1ccc(NC(=O)/C=C/c2ccc(C)o2)cc1S(=O)(=O)N1CCOCC1 | inconclusive: 1.58 µM [inhibitor, partial curve, poor fit] | –
Cc1ccc(C)c(Cn2c(O)c(N=NC(=S)Nc3ccccc3F)c3ccccc32)c1 | inconclusive: 14.6 µM [inhibitor, partial curve, poor fit] | –
O=C(Nc1ccc2c(c1)OCCO2)c1ccccc1F | inconclusive: 8.91 µM [inhibitor, partial curve, poor fit] | –
CC(=O)Nc1nc(-c2ccc(Cl)cc2)ns1 | inconclusive: 0.891 µM [activator, full curve] | –
COc1ccc2oc(C(=O)NCCN3CCOCC3)c(C)c2c1OC | – | inactive: 30.1%
CC1CCN(S(=O)(=O)c2ccccc2)CC1 | – | inactive: 4.74% [at 46.1 µM]
O=C(CCn1c(=O)oc2ccccc21)N1CCc2ccccc21 | inconclusive: 7.3 µM [activator, partial curve, poor fit] | –
COc1ccccc1-c1noc(CCC(=O)NC2CCCCC2)n1 | – | inactive: 3.54%
Cc1ccc(S(=O)(=O)c2nc(Nc3ccccc3N3CCOCC3)sc2Cl)cc1 | inconclusive: 29.1 µM [inhibitor, single point] | –
CC(C)(C)OC(=O)NNC(=O)Nc1ccccc1C(F)(F)F | – | inactive: -1.8% [at 46.1 µM]
CCOC(=O)N1CCN(C(=O)COC(=O)c2cc(Cl)cc(Cl)c2)CC1 | – | inactive: -10.7%

Structures listed so far containing a CF3 group:
Structure (SMILES) | Potency | activity change, negative = inhibition
O=c1c2ccc(Cl)cc2nc(-c2cccc(C(F)(F)F)c2)n1O | inconclusive: 7.94 µM [inhibitor, partial curve, poor fit] | –
CC(C)(C)OC(=O)NNC(=O)Nc1ccccc1C(F)(F)F | – | inactive: -1.8% [at 46.1 µM]

Later entries:

Structure (SMILES) | Potency | activity change, negative = inhibition
Cc1oc(-c2ccccc2F)nc1CS(=O)CC(=O)NC(C)C (stereo unspecified) | inconclusive: 4.47 µM [inhibitor, single point] | –
COc1cccc(C2c3[nH]c4ccccc4c3CCN2CCCn2cccn2)c1 (stereo unspecified) | inconclusive: 17.8 µM [inhibitor, partial curve, poor fit] | –
Cc1ccc(NC(=O)CSc2nnc(-c3ccco3)o2)c(C)c1 | – | inactive: -2.14%
c1cnc(Oc2ccc3oc4ccccc4c3c2)nc1 | inconclusive: 31.6 µM [activator, single point] | –
CCC(=O)N1CCc2cc(Br)cc(S(=O)(=O)NCCN3CCCCC3CC)c21 (stereo unspecified) | inconclusive: 11.6 µM [inhibitor, partial curve, poor fit] | –
COc1ccc(CCNCc2ccc(SC)cc2)cc1 | inconclusive: 16.4 µM [inhibitor, single point] | –
Cc1[nH]c(C)c(S(=O)(=O)Nc2cccc(Cl)c2C)c1C(=O)N1CCCCC1 | – | inactive: -23.2% [at 46.1 µM]
COc1ccc(NS(=O)(=O)c2ccc(NC(=O)c3ccc(N(C)S(C)(=O)=O)cc3)cc2)cc1 | inconclusive: 8.91 µM [inhibitor, partial curve, poor fit] | –
Cc1cccc(N(C(=O)CNC(=O)c2ccco2)C(C(=O)NC2CCCC2)c2ccncc2)c1 (stereo unspecified) | – | inactive: -13.5%
Cc1ccc(C(C)C)c(Oc2nnnn2-c2ccccc2)c1 | inconclusive: 29.1 µM [inhibitor, single point] | –
CCCCOc1ccc(C(=O)NN2C(=O)NC3(CCCCC3)C2=O)cc1OC | – | inactive: 15.5%
Cc1cc(=O)oc2cc(OCCc3ccccc3)ccc12 | inconclusive: 1.26 µM [inhibitor, full curve, poor fit] | –
COc1cccc(C(=O)N2CCCCC2CCN2CCCCC2)c1 (stereo unspecified) | – | inactive: 1.53% [at 46.1 µM]
O=C(NNC(=S)Nc1ccccc1)c1cc(-c2cccnc2)nc2ccccc12 | – | inactive: 3.97%
O=C(O)c1ccccc1Cc1ccc2c(c1)CCCC2 | – | inactive: 13.2% [at 46.1 µM]
COc1ccc(CNC(=O)C2COc3ccccc3O2)cc1 (stereo unspecified) | – | inactive: -1.3% [at 46.1 µM]
CC(=O)c1c(C)[nH]c(C(=O)CSc2ccc(F)cc2)c1C | inconclusive: 14.6 µM [inhibitor, partial curve, poor fit] | –
COc1cc(/C=C2\SC(N3CCC(C)CC3)=NC2=O)ccc1O | inconclusive: 2.51 µM [inhibitor, partial curve, poor fit] | –
CCc1cccc2c(C(=O)COC(=O)c3nccnc3N)c[nH]c12 | – | inactive: 46.9%
COC(=O)c1sccc1NC(=O)c1cccc(OC)c1 | inconclusive: 35.5 µM [activator, single point] | –
CCSc1nc(C)cc(C)c1S(=O)(=O)c1ccccc1C | – | inactive: -21.4%
CN(C)S(=O)(=O)c1ccc(C(=O)OCC2COC(C)(C)O2)cc1 (stereo unspecified) | inconclusive: 5.62 µM [inhibitor, single point] | –
O=[N+]([O-])c1ccc(S(=O)(=O)N(CC(O)CN2CCCCC2)c2ccccc2)cc1 (stereo unspecified) | – | inactive: 4.65% [at 46.1 µM]
Cn1ccnc1C(=O)c1ccc(NN)c([N+](=O)[O-])c1 | inconclusive: 0.794 µM [inhibitor, full curve, poor fit] | –

Structure (SMILES) | Potency | activity change, negative = inhibition
CC(/C=N/NC(=O)c1ccncc1)=C\c1ccccc1 | – | inactive: -6.4%
COc1ccc(C(=O)[C@]2(C)C=C(c3ccc(OC)cc3)[C@H](C)C2)cc1 | – | inactive: 10% [at 14.2 µM]
CN(C(=O)Cn1cc(C(F)(F)F)cc(Cl)c1=O)C1CCS(=O)(=O)C1 (stereo unspecified) | inconclusive: 0.562 µM [activator, full curve] | –
CCn1cc(/C=C(\NC(=O)c2ccc(C)cc2)C(=O)NCCCn2ccnc2)c2ccccc21 | inconclusive: 3.55 µM [inhibitor, single point] | –
Cc1c(C(=O)N(CCc2ccccc2)Cc2ccccc2)cccc1[N+](=O)[O-] | inconclusive: 15.8 µM [inhibitor, single point] | –
CC(C)(C)c1cc(NC(=O)c2cccs2)no1 | inconclusive: 4.47 µM [inhibitor, full curve, poor fit] | –
CCOc1ccc(Cc2onc3c2C(=O)CCC3)cc1OCC | – | inactive: -3.68% [at 46.1 µM]
NS(=O)(=O)c1ccc(NC(=O)/C=C/c2ccc(S(=O)(=O)NCc3ccco3)cc2)cc1 | – | inactive: -3.52% [at 46.1 µM]
Cc1ccc(-n2nc3c(n2)/C(=N/O)CC/C3=N\O)cc1 | inconclusive: 11.2 µM [inhibitor, single point] | –
CCc1ccc(OCCOCC(O)CN2CCN(Cc3ccc(Cl)cc3)CC2)cc1 (stereo unspecified) | inconclusive: 20.6 µM [inhibitor, partial curve, poor fit] | –
C=CCNC(=O)c1ccc(-c2nc3ccccc3nc2-c2ccccc2)cc1 | – | inactive: -14.9% [at 46.1 µM]
Cc1ccc(C(=O)/C=C/Nc2cccc([N+](=O)[O-])c2)o1 | inconclusive: 35.5 µM [inhibitor, single point] | –
O=C(CN1CCCCC1)NCCNC(=O)CN1CCCCC1 | inconclusive: 0.0326 µM [inhibitor, full curve, poor fit] | –
CSc1nsc(SCC(=O)Nc2ccccc2C(=O)O)n1 | active: 18.3 µM | –
CCOC(=O)C1CCCN(CC(=O)Nc2nc(-c3ccccc3)cs2)C1 (stereo unspecified) | inconclusive: 12.6 µM [inhibitor, partial curve, poor fit] | –
Cc1ccc(C)c(OCCCC(=O)O)c1 | inconclusive: 6.31 µM [inhibitor, full curve, poor fit] | –
O=S(=O)(c1ccc(F)cc1)N(CC(O)Cn1c2ccccc2c2ccccc21)c1ccccc1 (stereo unspecified) | inconclusive: 35.5 µM [inhibitor, single point] | –
COc1ccc(NC(=O)CSc2ccc3c(c2)OCCO3)cc1S(N)(=O)=O | – | inactive: -0.81% [at 46.1 µM]
COc1cccc(CN(C)C(=O)c2cc(-c3cccs3)nc3ccccc23)c1 | inconclusive: 22.4 µM [inhibitor, single point] | –
CCN(c1ccccc1)S(=O)(=O)c1c(C)nc2scc(C)n2c1=O | – | inactive: 7.2% [at 46.1 µM]
CCc1ccc(CN(C)CC(=O)Nc2ccc3c(c2)CCC3)cc1 | inconclusive: 35.5 µM [inhibitor, single point] | –
O=C(NNC(=O)C1CC1)c1ccccc1[N+](=O)[O-] | inconclusive: 3.16 µM [inhibitor, single point] | –
S=C1N(c2ccccc2)C(c2ccccc2)N2CCCN12 (stereo unspecified) | – | inactive: -0.707%

Filtered by structure: the compounds so far with a Cl atom (8)
Structure (SMILES) | Potency | activity change, negative = inhibition
Cc1ccc(NC(=O)CN2C(=O)NC(C)(c3ccc(Cl)cc3)C2=O)cc1 (stereo unspecified) | – | inactive: -2.61% [at 46.1 µM]
O=c1c2ccc(Cl)cc2nc(-c2cccc(C(F)(F)F)c2)n1O | inconclusive: 7.94 µM [inhibitor, partial curve, poor fit] | –
CC(=O)Nc1nc(-c2ccc(Cl)cc2)ns1 | inconclusive: 0.891 µM [activator, full curve] | –
Cc1ccc(S(=O)(=O)c2nc(Nc3ccccc3N3CCOCC3)sc2Cl)cc1 | inconclusive: 29.1 µM [inhibitor, single point] | –
CCOC(=O)N1CCN(C(=O)COC(=O)c2cc(Cl)cc(Cl)c2)CC1 | – | inactive: -10.7%
Cc1[nH]c(C)c(S(=O)(=O)Nc2cccc(Cl)c2C)c1C(=O)N1CCCCC1 | – | inactive: -23.2% [at 46.1 µM]
CN(C(=O)Cn1cc(C(F)(F)F)cc(Cl)c1=O)C1CCS(=O)(=O)C1 (stereo unspecified) | inconclusive: 0.562 µM [activator, full curve] | –
CCc1ccc(OCCOCC(O)CN2CCN(Cc3ccc(Cl)cc3)CC2)cc1 (stereo unspecified) | inconclusive: 20.6 µM [inhibitor, partial curve, poor fit] | –
